Screening data

Source: PubChem BioAssay AID1159506 (NCATS, 2015).

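Luminescence from an EWS-FLI1 target-promoter (NR0B1) reporter, set against a CMV-promoter reporter, two days after silencing single genes in TC32 Ewing sarcoma cells.
Each siRNA was applied at 20 nM.
A z-score of the log NR0B1-over-CMV signal, less the median of siRNAs with the same seed; more negative means a stronger specific loss of the NR0B1 reporter.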

The strongest results of the screen are mostly left out here.
Sequences are the guide (antisense) strand, without overhang.

siRNA	target gene	seed-corrected z-score
UUUCCAACAUCUCCUGACC	VTI1A	-0.2241
UGAUUAUCAACAGCCCGGC	NIT2	-1.52
UCCUCGUUCAAGGCGAUGU	HLA-K	-0.9484
AUUGCUUUUAGUAUGAUGC	CDC42P6	-0.1221
AUAGUAUGGAGAACACUGC	SLC39A2	-0.4606
UCUUCGAAGAGUAAGUCUC	DOCK8	0.4299
UGGAUGGCCGCAUUAUUCC	TUBBP5	-0.0788
UUGGGCAUCUUGAAUCACC	PXMP2	-0.5119
UUCCCGGUCACACUCAUAC	MRC2	-0.3393
UUCUCCACCACGAUAUACU	MSMB	0.07393
UGUUUUCGAAGAUCAGAGC	ZNF596	-0.8602
AAUGUAGUCACGGUCCUUA	DFNB31	-0.5352
UUCGGCUGAAUUCAUCGCG	ZNF835	-0.2001
UCGGAUCCAUCCAUGAUGC	ENTPD5	-0.04147
UACUCCACCAUGAACAUAG	G3BP2	-0.857
AAUGGUAUUGUUGACUUCG	PEPD	-0.1333
UUGACAGUAGUGUGAAUUC	ZNF724P	-1.374
UUAAGUUCCAUGAGUGAGG	PRCP	-0.01098
UGAAUUCCAAGAUCCUUUC	SLC10A6	-0.1568
UAAUAUACAAGGGCUCAAC	UBE2C	-0.777
UUUAUGGUUAAUGUGAAUC	CRHBP	-0.5055
UCUUGGCCAUGCACUCUGC	GADD45GIP1	-1.197
AUUGCUAAUAUCAAGCUUC	HDX	-0.7293
UGAGUCAACACGGAGCUGU	FOXG1	0.7661
UAUUGUUAUUCUCCUUUUG	OR8G5	1.571
UGAUGUAAAACCAAGUAUC	SPIN4	-0.3506
UUUAAGUUGUACGUCUUGC	HSD17B10	-0.1203
UUCCAAUUAACAGCUGUUG	VNN2	-1.563
UUUCGGCUUGAGAAGGUGC	RPA2	-0.9754
UCUGGUUUUUAUACCGUCG	EBNA1BP2	-0.7002
UGGUCUUCUCCGGAAGUGC	LOC146880	-0.5228
AGACGAACAAGAGUAGGAG	HPS4	-0.4965
UCUGUGCUUCAAGUCUUCC	IGFBP4	0.04966
UUACUAUCUUUGGUAGUAC	PNISR	0.3259
UUACAUAAUAUGAAUUGCU	LOC644215	1.547
UAGAUAGCAGAGGGAAUGC	FAM168A	0.6081
UAUACGUUCCUGUUUUACC	ADGRF5	-0.7458
UCGGCGUUCAGUGAUUGUC	APOE	0.7207
UGCACCUCCAGAUUCUGCC	FUZ	0.3322
UCUAGAUUCAAUGUGGGUC	PAH	-1.456
UAUCCGAGAGGUUUGAGCG	VPS37C	-0.5384
UGCAGCUUCACAUACAGCU	RPS26P50	1.007
UUUCUCUUCACGAUGGUAA	CLEC5A	0.0601
UGGAUAACAACCAAGGUUC	MAGI3	0.6716
UAUAUUAAGGGAUCCAUAC	P2RY13	-0.05381
ACAAUGAUUAGUCUUCGGC	IL18R1	-0.4192
UCCUCCUGUGCCAUAGUCC	DKFZP547L112	0.1105
UUCCUCUAAAGAGCUUCGC	IKZF1	-0.202
UUUCAGUGUAGAACUCGGC	EEPD1	0.8978
UCUGAUUCUUGUCUCGUUC	EIF4E2	0.4556
UACCAUUCCCUCCUCAUUC	POLA2	1.069
UGAGGAUCAAGAACUCGGU	OR6X1	-0.8444
UUAUCUUCUCGGUGGCUCG	ATAD3A	-0.1554
UAACGUAAGAUUCCAAACG	MRPL50	0.5714
UUAUGGUCAUCAUUUUCCC	FABP9	0.004759
UGAGUCUUGAUUUCACCUC	P4HB	-0.06947
UCUCUUGUGACAAAUGAUU	ZFAND6	0.2779
AAACUUAUGACGAGUCGUC	PLB1	-0.03475
UUUGCGUUUCGCUUUGCCC	ZNF536	-0.5109
UACUCUUUCCUGGUGAUCC	ACTR5	-0.6911
UUGACUUUAGUCAGUGUCU	TP53I11	0.3504
UGGUCAAACAGGUAGACUG	LMTK2	0.1754
UUAGUGACUCCUCCAAUUG	CCDC14	0.09978
AUUGUUACCAUCCUCAAUC	PSME1	0.6883
UUGGGUUUGUUAAGUAUCC	TRAM2	2.322
UUCCUCGCAAUCAAAGGGC	ZNF275	-0.1229
UUCUGGUAUAGGUUCUGCC	MED6	0.2824

5 of the entries, repeated:

| siRNA | target gene | seed-corrected z-score |
|---|---|---|
| `UUUAAGUUGUACGUCUUGC` | HSD17B10 | -0.1203 |
| `UGCACCUCCAGAUUCUGCC` | FUZ | 0.3322 |
| `UGGAUGGCCGCAUUAUUCC` | TUBBP5 | -0.0788 |
| `UUUCGGCUUGAGAAGGUGC` | RPA2 | -0.9754 |
| `AAACUUAUGACGAGUCGUC` | PLB1 | -0.03475 |